For at least one compound, name, drawing or mass did not settle the structure.
Test system: primary mouse lung fibroblasts
Assay: migration assay (FluoroBlok transwell)
Format: cell-based, C57BL6 mice
Settings: IGF-1 100 ng/ml; A12 40 μg/ml preincubation
Experimental: Mouse lung fibroblasts were plated FluoroBlok transwell filters overnight, then IGF-1 (100 ng/ml), serum free media (negative control), 10% serum (positive control) was added to lower chamber. Some cells were preincubated with the blocking antibody to IGF-1R (A12, 40 μg/ml) before the addition of IGF-1. Cells were allowed to migrate through membrane for 4 hours @ 37° C. Migrated cells were counted with Fluorescent microscope. Each experiments was done in triplicate and repeated at least three times. Average cell count ±SD are presented.
For migration assays, primary mouse lung fibroblasts (50,000 cells/well) were plated in serum-free medium overnight on Fluoroblok transwell filters (8 μm pores, HTS FluoroBlok™ 24-Multiwell Insert System, BD Bioscience, Bedford, Mass.) pre-coated with fibronectin (50 μg/ml). Fluoroblok microporous membranes are specifically designed to detect by fluorescence only cells below the surface membrane. IGF-1 (100 ng/ml), 10% FBS (positive control) or serum-free media (negative control) was added to lower chamber. In some experiments, cells were preincubated with the blocking antibody to IGF-1R (A12, 40 μg/ml), for 1 hour. After 4 hours of migration, filters were fixed with formaldehyde and stained with DAPI (4′6-Diamidine-2′-phenylindole dihydrochloride, Roche, Indianapolis, Ind.). Migrated cells were counted in three predesignated fields for each filter. […]

## O=c1cc(N2CCOCC2)oc2c(-c3ccccc3)cccc12 [LY294002, reference compound]
  effect on IGF-1-induced migration: partially inhibited
